Assay results: article PMC7819943, “Rice protein-binding microarrays: a tool to detect cis-acting elements near promoter regions in rice”
This is one part of the list.

By UniProt entry, the sequences of proteins in these tests, tags left out.
UniProt Q0JBA9, entry or part of it: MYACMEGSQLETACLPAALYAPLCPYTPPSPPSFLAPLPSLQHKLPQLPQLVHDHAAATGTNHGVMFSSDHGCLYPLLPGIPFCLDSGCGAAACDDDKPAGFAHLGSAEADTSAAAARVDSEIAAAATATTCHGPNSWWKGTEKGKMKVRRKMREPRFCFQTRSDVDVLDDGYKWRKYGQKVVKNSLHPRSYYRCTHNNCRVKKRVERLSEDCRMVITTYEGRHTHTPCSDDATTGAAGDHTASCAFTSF

Target: OsWRKY34 (Oryza sativa, UniProt Q0JBA9 1-250)
Assay: protein-binding microarray (RPBM); PBS, 2% BSA, 51.3 ng/ul salmon testes DNA, 50 uM zinc acetate, 200 nM TF, 25 C, 1 h; high values mean tight binding
Details: protein: recombinant; tags: N-terminal polyhistidine and DsRed monomer fusion (pET32a); label: CyDye5-dUTP incorporated in the synthesized complementary strand; 3' TTTTT single-stranded linker to array surface; dsDNA, one strand shown
In short: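 Transcription factors were made in E. coli BL21-CodonPlus as N-terminal fusions to a polyhistidine tag and DsRed, then purified on Ni–NTA. After primer extension with Cy5-dUTP and blocking with 2% BSA, a custom Agilent array was exposed for 1 h at 25 °C to 200 nM protein in PBS, 2% BSA, salmon testes DNA and 50 µM zinc acetate. Washed arrays were scanned on an Axon 4000B, and the binding signal is per-feature fluorescence intensity in arbitrary units.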

| Sequence | binding signal |
| --- | --- |
| CGTCACATGCCTTCTGATTCGGTTTGTTCTGGCCTTCTTGCGGAGTCACCTAGTGCAG | 9810 fluorescence intensity (a.u.) |
| TATGAATGTTGTTGTGTTAGTATACGTATCCGTGATGTATCGGAGTCACCTAGTGCAG | 9210 fluorescence intensity (a.u.) |
| AGCCTAGGCTGACGAGCTCGCTCGAGCTCGGCTCGTTGACCGGAGTCACCTAGTGCAG | 9610 fluorescence intensity (a.u.) |
| CATACTCCCTCTATTTTATATTGTAAGTTATTTTGATTCTCGGAGTCACCTAGTGCAG | 8220 fluorescence intensity (a.u.) |
| AGTAGTAGTAGGGCTTTGCTCTGGTCTTGCAAGTTAGGTTCGGAGTCACCTAGTGCAG | 8230 fluorescence intensity (a.u.) |
| CCCTAAATATTTGACACCGTTGACTTTTTTAAATATGTTTCGGAGTCACCTAGTGCAG | 39600 fluorescence intensity (a.u.) |
| GATACTACAACGACGACGCCTGGCGATGGGTGGGGAGAAGCGGAGTCACCTAGTGCAG | 9070 fluorescence intensity (a.u.) |
| CCTCACCCGCACCCACCACCACCAACCTCCCACCCCACAACGGAGTCACCTAGTGCAG | 10300 fluorescence intensity (a.u.) |
| AACCTTTCCAAGATGCAAAGTTGCACCGCCAAACATCTATCGGAGTCACCTAGTGCAG | 8180 fluorescence intensity (a.u.) |
| TCTGTTATATTTACTATCCATACTATACGTGTAAATTTTACGGAGTCACCTAGTGCAG | 10200 fluorescence intensity (a.u.) |
| TTTTGTCTACTGCGCCTACCACGCCGTTGTCCACTACCTCCGGAGTCACCTAGTGCAG | 10400 fluorescence intensity (a.u.) |
| TGATTGAATGATTGCTCACTGTGTACTTGTTATTTTAATCCGGAGTCACCTAGTGCAG | 11500 fluorescence intensity (a.u.) |
| CGCACATTTATACACTGCTATTCGTGTTCTTTTCAAGTTACGGAGTCACCTAGTGCAG | 15000 fluorescence intensity (a.u.) |
| TTCGTCCCCTTCCTCGCTTCCACGCCAAAAGTCGTTCGCTCGGAGTCACCTAGTGCAG | 8660 fluorescence intensity (a.u.) |
| CAACACCTAATGCCATTGTTACTCTACCGTAGTAGTATATCGGAGTCACCTAGTGCAG | 8660 fluorescence intensity (a.u.) |
| ATCCTGGGCCGACGACTATCCCGCAACTCATTGCTCGCCTCGGAGTCACCTAGTGCAG | 9930 fluorescence intensity (a.u.) |
| CTCACGGTAAATCTCGTCGACGTACAGTAACATATACTGGCGGAGTCACCTAGTGCAG | 8120 fluorescence intensity (a.u.) |
| ATCATCTATTTTATATCGTCCATATTATATCATCCTATATCGGAGTCACCTAGTGCAG | 10600 fluorescence intensity (a.u.) |
| AGTTTGTCCCATATTCTCAACTTTCCATCACATCATATCACGGAGTCACCTAGTGCAG | 10500 fluorescence intensity (a.u.) |
| GGGATTTTGAGTTTTTGCTTGTAGCGTTTGACCACTCGTCCGGAGTCACCTAGTGCAG | 9740 fluorescence intensity (a.u.) |
| GATCGAGCTCTACCACCACTGCTTCGCCTTCATCAAGTCCCGGAGTCACCTAGTGCAG | 10400 fluorescence intensity (a.u.) |

| Sequence | binding signal |
| --- | --- |
| GTAATTATCATTTATTTTTATTGTGACTTGATTCATCATCCGGAGTCACCTAGTGCAG | 9980 fluorescence intensity (a.u.) |
| GGTCCCACTTCGTCCACTTACCCCTCTATCTCTATTTGCTCGGAGTCACCTAGTGCAG | 9630 fluorescence intensity (a.u.) |
| ACAGCACTGTGATGCAGCACTACTTGTTTCCATTACCAAACGGAGTCACCTAGTGCAG | 8900 fluorescence intensity (a.u.) |
| GCACGCCCTCGAGTTTCTCCTCCTCGTCGACGTCGACCTCCGGAGTCACCTAGTGCAG | 10400 fluorescence intensity (a.u.) |
| GTGTTTTGCAATCCTCTGTTTTACGCTTATATTCCTATTACGGAGTCACCTAGTGCAG | 13600 fluorescence intensity (a.u.) |
| ACTCCCAGGTTCCATTTCCCTTTTCTTCTTCCAACTTCCACGGAGTCACCTAGTGCAG | 8160 fluorescence intensity (a.u.) |
| CACCCAAAAGGATATATGCTCTGCCCCTTGTCTCCATCTCCGGAGTCACCTAGTGCAG | 8050 fluorescence intensity (a.u.) |
| CTACCTCTAGTTCTTCTCCATCGAGTTATTCGTCTTCCATCGGAGTCACCTAGTGCAG | 8470 fluorescence intensity (a.u.) |
| GTTTGAAGTTTGTGTGTGTAGGAAAGTTTTGATGTGATGGCGGAGTCACCTAGTGCAG | 9140 fluorescence intensity (a.u.) |
| GCAGTCCCTTAATATTATGATTAGCTTTAATTTTTGTTCTCGGAGTCACCTAGTGCAG | 10700 fluorescence intensity (a.u.) |
| TTTCTTCTGTTGCTTATATGTCGTTTTATGCCCTATCAGACGGAGTCACCTAGTGCAG | 9700 fluorescence intensity (a.u.) |
| TTCCCGGCGCTGTCCATTTCTACTACCAAGCTTGTAAATGCGGAGTCACCTAGTGCAG | 8660 fluorescence intensity (a.u.) |
| CATCACATATCAACATTGATCAATCTATCATTACCTTCTGCGGAGTCACCTAGTGCAG | 9990 fluorescence intensity (a.u.) |
| CGCTTTAAGATTCGTGCCGGGACACGTGTCATCATCCTACCGGAGTCACCTAGTGCAG | 9290 fluorescence intensity (a.u.) |
| CCAACCCACCTGGGCCGCCGCGTCTCGTTCTCTCCTCCAACGGAGTCACCTAGTGCAG | 9620 fluorescence intensity (a.u.) |
| TGTTGCTATGTCGAAGATTTTGTTTTGTTGTATTTGGTGACGGAGTCACCTAGTGCAG | 10400 fluorescence intensity (a.u.) |
| AACTGACTATACTCACTTCAAATTTGAACTCACATGTTTTCGGAGTCACCTAGTGCAG | 12200 fluorescence intensity (a.u.) |
| GAGAGAGAGAGAGAGAGAGAGATAGCCGGGGAGGGAGGGGCGGAGTCACCTAGTGCAG | 12200 fluorescence intensity (a.u.) |
| TTTTTTCTCATTTCTTCGATTTGTGCGTCGAACTGCAGCTCGGAGTCACCTAGTGCAG | 8740 fluorescence intensity (a.u.) |
| AGTTCAAAATTTTAGTGATTTTTATTGTCGGGGATTTTCACGGAGTCACCTAGTGCAG | 9320 fluorescence intensity (a.u.) |
| ACACTCGCGCTCCGCCGCCCTCACGCGTCTTCCATTCTTGCGGAGTCACCTAGTGCAG | 8400 fluorescence intensity (a.u.) |

Looked up above:
For binding signal, CAACACCTAATGCCATTGTTACTCTACCGTAGTAGTATATCGGAGTCACCTAGTGCAG is listed with 8660 fluorescence intensity (a.u.)
For binding signal, GGTCCCACTTCGTCCACTTACCCCTCTATCTCTATTTGCTCGGAGTCACCTAGTGCAG is listed with 9630 fluorescence intensity (a.u.)
